Source: patent publication US4108857A, “Imidazolylmethyl methanobenzazocines” (Sterling Drug Inc., priority 1977, dated 1978)
At least one structure is not confirmed: it was looked up by name or label, or the drawing left a doubt.

Assay: precipitation on diluting ethyl alcohol solution with four volumes of water
Assay type: physicochemical
Conditions: 5 percent (w/v) solution in 95 percent ethyl alcohol

C[C@H]1[C@H]2Cc3ccccc3[C@]1(C)CCN2CC1CCCO1 (stereo partly drawn) [Example 28, 1,2,3,4,5,6-hexahydro-3-(tetrahydro-2-furylmethyl)-cis-6,11-dimethyl-2,6-methano-3-benzazocine]
precipitation on dilution with four volumes of water: a precipitate formed
